Results published in patent US7704723B2, “Isolation and characterization of novel clostridial species” (The Board of Regents For Oklahoma State University, priority 2006, dated 2010).
At least one read-out could not be matched to a standard name with certainty. Some entries repeat one wording, which the source may state once for all of them. Marks after values point to notes of the source that are not given here.

Test system: Clostridium ljungdahlii strain PETC
Assay: Growth of reference strain PETC on substrates as sole carbon and energy sources
Assay type: cell-based
Settings: growth on substrate as sole carbon and energy source, final OD600
Description: Organisms. Clostridium ljundahlii strain PETC was obtained from a fructose stock culture maintained by Dr. Ralph S. Tanner and was used as the reference control strain. Strain P11 was obtained from an anaerobic enrichment inoculated with fresh water sediment from the Duck Pond at the University of Oklahoma by a procedure described previously (Bryant, 1972) under an atmosphere of CO:N2:CO2 (75:15:10) and an initial pH of 6.0. The carbon monoxide oxidizing clostridium described within was named Clostridium ragsdalei. This bacterium was designated strain P11 and deposited with the American Type Culture Collection as strain ATCC BAA-622.
Except for the deletion of NaHCO3 and an initial pH 6.3, growth on organic and gaseous substrates was performed as previously described (Tanner et. al., 1993). Resazurin (1 mg/L) was used as the redox indicator. Purified agar was added to the medium at a concentration of 2% for colony morphology description (Table 5). […] The optimum temperature and pH (initial pH) was determined in medium containing fructose as the substrate. […]
Analytical methods. […] For the substrate malate, utilization was analyzed by HPLC (“high-performance liquid chromatography”) equipped with a UV detector set at 214 nm using a Alltech, Prevail Organic Acid column (4.6×150 mm, 5 μm; Alltech, Deerfield, Mich.) with a mobile phase of 25 mM KH2PO4, pH 2.5 and 10% (v/v) methanol.

Row | Structure (SMILES) | Substrate utilization, C. ljungdahlii
1 | O=C(O)[C@H](O)[C@@H](O)[C@H](O)[C@H](O)CO [Gluconic acid] | +^† (positive (indicates a final OD600 of greater than or equal to 0.1.))
2 | N=C(N)NCCC[C@H](N)C(=O)O [Arginine] | + (positive (indicates a final OD600 of greater than or equal to 0.1.))
